Laboratory results: PubChem BioAssay AID1259405 (NCATS, 2018)
Aim: 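Knock-downs that lift recombinant protein yield in hamster ovary cells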 (primary screen). Cell system: Chinese hamster CHO-K1 ovary cells with stable secreted eGFP expression. Reagents: single siRNA against mouse genes, 0.8 pmol siRNA per well (2 µl of 400 nM stock). Timing: 3 days. Read-out: 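Percent of the per-plate non-targeting control median for intracellular GFP per well by laser scanning cytometry and for cell viability by ATP luminescence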. Direction: GFP, % of control: higher = more GFP per well, higher productivity; viability (ATP), % of control: higher = more viable cells (more ATP). Hit rule: 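a knock-down is called active if GFP reaches 120% or more of non-targeting control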.
The deposit covers about 50,000 reagents; shown is a random part of them. About 4,000 of all reagents (8%) count as active. 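Mouse siRNA library applied to hamster cells; one well for each siRNA.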 Unmarked entries are inactive. The numbers tell different reagents against one gene apart.

gene knocked down	reagent no.	GFP, % of control	viability (ATP), % of control
Mtrex	1	90.1	66.3
Mtrex	2	72.7	70.8
Mtrex	3	108	124
Ncoa1	1	65.5	75
Ncoa1	2	62.5	73.2
Ncoa1	3	116	85.9
Igfals	1	131 (active)	134
Igfals	2	53.7	65.5
Igfals	3	50.9	69.8
Cept1	1	34.9	26.9
Cept1	2	75.1	96.4
Cept1	3	52.1	44.1
Rab11fip2	1	86.7	81.6
Rab11fip2	2	79.6	68.9
Rab11fip2	3	72.8	75.7
Hbs1l	1	138 (active)	131
Hbs1l	2	102	67.9
Hbs1l	3	101	80.2
Ifna14	1	74.8	51.2
Ifna14	2	86.9	56.6
Ifna14	3	93.4	65.7
Ift74	1	87.6	84.7
Ift74	2	71.6	56.3
Ift74	3	117	120
P3h1	1	84.5	93.5
P3h1	2	108	90.3
P3h1	3	95.8	71.2
Letm2	1	55.4	76.1
Letm2	2	54.1	72.6
Letm2	3	85.9	99.5
Oprk1	1	70.3	65.2
Oprk1	2	72.8	75.6
Oprk1	3	110	73
Zfp654	1	90.7	69.4
Zfp654	2	86.9	73.9
Zfp654	3	104	86.2

3 successive reagents already listed, quoted:
gene knocked down	reagent no.	GFP, % of control	viability (ATP), % of control
P3h1	1	84.5	93.5
P3h1	2	108	90.3
P3h1	3	95.8	71.2
